Among the data in patent US20180250426A1 are binding values, retold here.

Sequences of proteins named here, by UniProt entry; tags and fusion partners are left off.
UniProt P30550: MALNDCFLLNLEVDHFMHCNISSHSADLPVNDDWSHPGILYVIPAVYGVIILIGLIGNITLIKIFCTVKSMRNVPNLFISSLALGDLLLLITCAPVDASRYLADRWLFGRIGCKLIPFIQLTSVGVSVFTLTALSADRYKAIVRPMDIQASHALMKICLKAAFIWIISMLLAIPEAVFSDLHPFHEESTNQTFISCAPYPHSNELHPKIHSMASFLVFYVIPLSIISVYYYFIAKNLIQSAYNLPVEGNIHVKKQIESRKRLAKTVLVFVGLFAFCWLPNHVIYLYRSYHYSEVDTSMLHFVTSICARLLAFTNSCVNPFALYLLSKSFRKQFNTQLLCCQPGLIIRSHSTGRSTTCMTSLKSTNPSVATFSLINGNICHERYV

These are yes or no findings as the source states them, for the method shown. Some entries that bind do so weakly or less than the wild type.

The target of the test is GRPR (GRP receptor) (UniProt P30550). Put plainly: confocal immunofluorescence with a CD2 antibody and Alexa Fluor 488 on GRPR-high PC-3 and DU145 cells at 37 °C; GRPR-low H441 cells as control.

B1: CA1-CD2-Bom (designed binder)
single chain: RDSGTVWGALGHGIELNIPNFQMTDDIDEVRWERGSTLVAEFKRKMKPFLKSGAFEIDANGDLDIKNLTRDDSGTYNVTVYSTNGTRILNKALDLRILEGGSGGSGNQWAVGHLM
Regarding B1, the binding entry is “binds”.
